Results from PMC5440813.
These are yes or no findings as the source states them, for the method shown. Binding seen in cells or lysates may run through a third protein. Here binding means that the protein was enriched with, or labelled near, the bait; the list need not be complete. For part of these data: A no says only that the protein was not detected with the bait. Blank lines part the entries; values can stand above or below the molecule they belong to.

The chains behind the UniProt entries cited, without tags or fusion partners. Where a name states a change or a piece, a line headed by the entry shows the natural chain unless it says otherwise.
UniProt Q9ZP06: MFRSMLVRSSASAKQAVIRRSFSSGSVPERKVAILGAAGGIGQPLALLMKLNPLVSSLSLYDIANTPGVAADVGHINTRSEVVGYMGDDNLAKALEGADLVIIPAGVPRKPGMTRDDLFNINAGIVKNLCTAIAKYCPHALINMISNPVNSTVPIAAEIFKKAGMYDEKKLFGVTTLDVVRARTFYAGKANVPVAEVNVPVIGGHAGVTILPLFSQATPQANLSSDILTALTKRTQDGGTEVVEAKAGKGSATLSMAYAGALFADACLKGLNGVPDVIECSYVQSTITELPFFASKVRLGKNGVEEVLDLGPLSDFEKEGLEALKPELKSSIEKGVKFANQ
UniProt Q9LKA3: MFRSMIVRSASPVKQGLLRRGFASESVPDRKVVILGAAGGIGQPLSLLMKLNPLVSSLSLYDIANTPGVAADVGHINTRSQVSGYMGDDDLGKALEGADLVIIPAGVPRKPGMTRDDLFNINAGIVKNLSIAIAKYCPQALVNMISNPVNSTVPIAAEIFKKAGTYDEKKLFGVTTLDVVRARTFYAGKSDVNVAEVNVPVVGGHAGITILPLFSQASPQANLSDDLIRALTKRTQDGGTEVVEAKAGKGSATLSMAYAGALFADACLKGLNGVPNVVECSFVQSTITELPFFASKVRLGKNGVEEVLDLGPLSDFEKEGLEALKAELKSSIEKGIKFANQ
UniProt O82663: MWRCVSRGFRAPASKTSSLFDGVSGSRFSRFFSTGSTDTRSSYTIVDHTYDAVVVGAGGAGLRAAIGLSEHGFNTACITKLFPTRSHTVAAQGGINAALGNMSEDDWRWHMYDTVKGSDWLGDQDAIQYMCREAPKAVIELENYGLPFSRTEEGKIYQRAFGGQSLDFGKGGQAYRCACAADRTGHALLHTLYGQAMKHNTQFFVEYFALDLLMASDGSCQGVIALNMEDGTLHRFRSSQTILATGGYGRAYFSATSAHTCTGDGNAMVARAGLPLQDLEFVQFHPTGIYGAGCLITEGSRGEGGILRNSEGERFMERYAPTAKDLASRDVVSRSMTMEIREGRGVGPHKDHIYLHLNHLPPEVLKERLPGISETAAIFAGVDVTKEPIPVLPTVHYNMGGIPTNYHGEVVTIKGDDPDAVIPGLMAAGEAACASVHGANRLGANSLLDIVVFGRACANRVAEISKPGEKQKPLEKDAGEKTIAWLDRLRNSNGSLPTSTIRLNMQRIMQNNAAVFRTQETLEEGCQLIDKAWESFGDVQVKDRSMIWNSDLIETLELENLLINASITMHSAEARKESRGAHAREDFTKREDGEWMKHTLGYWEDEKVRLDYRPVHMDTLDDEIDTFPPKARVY
UniProt P93033: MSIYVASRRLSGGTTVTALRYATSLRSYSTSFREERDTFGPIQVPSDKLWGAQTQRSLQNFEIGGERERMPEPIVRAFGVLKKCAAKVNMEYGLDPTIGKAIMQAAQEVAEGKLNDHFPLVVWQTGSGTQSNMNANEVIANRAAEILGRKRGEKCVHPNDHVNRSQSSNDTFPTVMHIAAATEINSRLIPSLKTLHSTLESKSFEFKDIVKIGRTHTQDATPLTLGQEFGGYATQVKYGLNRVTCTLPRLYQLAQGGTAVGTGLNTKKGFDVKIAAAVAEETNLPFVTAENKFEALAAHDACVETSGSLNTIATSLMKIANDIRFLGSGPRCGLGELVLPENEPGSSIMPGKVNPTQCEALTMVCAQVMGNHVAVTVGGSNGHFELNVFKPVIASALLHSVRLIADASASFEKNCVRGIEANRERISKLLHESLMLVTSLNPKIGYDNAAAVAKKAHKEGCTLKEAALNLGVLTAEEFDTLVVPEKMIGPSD

Key:
[1] = target: malate dehydrogenase (MDH) 1 (Arabidopsis thaliana) (UniProt Q9ZP06); assay: affinity purification with mass spectrometry + split reporter + two-hybrid; compromise score that integrates the AP-MS, split-LUC and Y2H data of the 38 x 38 screen (STATIS-like); interaction: compromise score above the threshold of about 0.6
[2] = target: malate dehydrogenase (MDH) 2 (Arabidopsis thaliana) (UniProt Q9LKA3); assay: as above
[3] = target: succinate dehydrogenase (SDH) subunit SDH1-1 (Arabidopsis thaliana) (UniProt O82663); assay: as above
[4] = target: T1, isocitrate dehydrogenase (IDH) subunit IDH1 (Arabidopsis thaliana) (UniProt Q8LFC0); assay: affinity purification with mass spectrometry; C-terminal GFP-tagged bait expressed in PSB-D Arabidopsis cell culture; extract (25 mM Tris-HCl pH 7.5, 15 mM MgCl2, 5 mM EGTA, 0.1% NP40) on GFP-Trap_A beads 1 h at 4 °C, washes with 0, 250 and 500 mM NaCl; LC-MS/MS, FC-A score (SAINT); positive: top 10% of scores (3.9)
T1 sequence: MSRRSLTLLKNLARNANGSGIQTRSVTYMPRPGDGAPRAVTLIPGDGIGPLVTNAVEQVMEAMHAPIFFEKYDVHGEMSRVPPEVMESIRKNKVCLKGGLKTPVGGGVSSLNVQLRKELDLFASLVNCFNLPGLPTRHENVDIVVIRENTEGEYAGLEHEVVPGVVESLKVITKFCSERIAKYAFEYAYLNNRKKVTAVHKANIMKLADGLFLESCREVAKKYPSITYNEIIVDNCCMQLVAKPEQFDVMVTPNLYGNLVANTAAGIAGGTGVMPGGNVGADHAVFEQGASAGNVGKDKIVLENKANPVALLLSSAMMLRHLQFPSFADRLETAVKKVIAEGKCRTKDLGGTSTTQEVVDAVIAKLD

[5] = target: T2, succinate dehydrogenase (SDH) subunit SDH2-3 (Arabidopsis thaliana) (UniProt Q9FJP9); assay: as above
T2 sequence: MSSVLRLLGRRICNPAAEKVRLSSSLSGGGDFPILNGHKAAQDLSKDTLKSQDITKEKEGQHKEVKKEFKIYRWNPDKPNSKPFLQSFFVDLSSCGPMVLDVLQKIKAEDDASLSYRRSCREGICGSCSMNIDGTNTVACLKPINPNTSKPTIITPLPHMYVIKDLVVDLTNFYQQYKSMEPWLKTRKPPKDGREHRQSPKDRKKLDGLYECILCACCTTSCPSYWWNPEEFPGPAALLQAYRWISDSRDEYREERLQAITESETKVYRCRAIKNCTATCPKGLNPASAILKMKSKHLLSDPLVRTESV

[6] = target: T3, succinate dehydrogenase (SDH) subunit SDH2-2 (Arabidopsis thaliana) (UniProt Q8LB02); assay: affinity purification with mass spectrometry + split reporter + two-hybrid; compromise score that integrates the AP-MS, split-LUC and Y2H data of the 38 x 38 screen (STATIS-like); interaction: compromise score above the threshold of about 0.6
T3 sequence: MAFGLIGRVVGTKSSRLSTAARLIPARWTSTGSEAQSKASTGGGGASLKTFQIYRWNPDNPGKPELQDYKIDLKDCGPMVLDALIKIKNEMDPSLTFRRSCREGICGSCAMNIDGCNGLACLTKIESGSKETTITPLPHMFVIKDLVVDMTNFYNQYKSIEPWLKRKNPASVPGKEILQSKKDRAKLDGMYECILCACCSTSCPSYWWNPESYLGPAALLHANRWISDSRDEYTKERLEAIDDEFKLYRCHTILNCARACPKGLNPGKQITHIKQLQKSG

[7] = target: T4, succinate dehydrogenase (SDH) subunit SDH4 (Arabidopsis thaliana) (UniProt Q941A0); assay: as above
T4 sequence: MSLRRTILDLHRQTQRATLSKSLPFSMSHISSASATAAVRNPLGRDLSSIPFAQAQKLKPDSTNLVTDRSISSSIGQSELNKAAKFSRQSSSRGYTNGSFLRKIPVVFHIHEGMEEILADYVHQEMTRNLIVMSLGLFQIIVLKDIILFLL

[8] = target: T5, citrate synthase (CSY) 4 (Arabidopsis thaliana) (UniProt P20115); assay: as above
T5 sequence: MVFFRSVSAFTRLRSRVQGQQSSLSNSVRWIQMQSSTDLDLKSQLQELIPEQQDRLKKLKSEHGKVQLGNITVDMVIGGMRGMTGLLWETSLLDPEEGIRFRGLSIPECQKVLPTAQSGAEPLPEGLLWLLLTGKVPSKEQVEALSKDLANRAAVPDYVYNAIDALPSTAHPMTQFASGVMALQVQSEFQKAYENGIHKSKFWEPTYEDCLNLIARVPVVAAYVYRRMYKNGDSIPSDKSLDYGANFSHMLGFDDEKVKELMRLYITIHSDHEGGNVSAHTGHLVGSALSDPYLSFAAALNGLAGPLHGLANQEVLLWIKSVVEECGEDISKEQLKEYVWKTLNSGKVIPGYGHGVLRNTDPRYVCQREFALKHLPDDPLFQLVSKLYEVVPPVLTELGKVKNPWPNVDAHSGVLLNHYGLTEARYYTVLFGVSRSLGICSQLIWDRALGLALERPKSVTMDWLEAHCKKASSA

[9] = target: succinyl-CoA ligase (SCoAL) regulatory subunit SCoALb (Arabidopsis thaliana); assay: as above

Molecule: succinyl-CoA ligase (SCoAL) regulatory subunit SCoALb (Arabidopsis thaliana)
- binding [6]: binds
- binding [7]: binds

B1: lipoamide dehydrogenase (LPD) 2 (enzyme, UniProt Q9M5K2 1-507)
chain: MAMASLARRKAYFLTRNISNSPTDAFRFSFSLTRGFASSGSDDNDVVIIGGGPGGYVAAIKAAQLGLKTTCIEKRGALGGTCLNVGCIPSKALLHSSHMYHEAKHVFANHGVKVSSVEVDLPAMLAQKDTAVKNLTRGVEGLFKKNKVNYVKGYGKFLSPSEVSVDTIDGENVVVKGKHIIVATGSDVKSLPGITIDEKKIVSSTGALSLTEIPKKLIVIGAGYIGLEMGSVWGRLGSEVTVVEFAADIVPAMDGEIRKQFQRSLEKQKMKFMLKTKVVGVDSSGDGVKLIVEPAEGGEQTTLEADVVLVSAGRTPFTSGLDLEKIGVETDKGGRILVNERFSTNVSGVYAIGDVIPGPMLAHKAEEDGVACVEFIAGKHGHVDYDKVPGVVYTYPEVASVGKTEEQLKKEGVSYNVGKFPFMANSRAKAIDTAEGMVKILADKETDKILGVHIMSPNAGELIHEAVLAINYDASSEDIARVCHAHPTMSEAIKEAAMATYDKPIHM
- binding [8]: binds
- binding [9]: binds

Other lines, results leading:

- binding [1]: no binding
- binding [2]: binds
- binding [3]: no binding
- binding [4]: no binding
Molecule: fumarase (FUM) 1 (from UniProt P93033 1-492) (enzyme)

- binding [5]: binds
Molecule: succinate dehydrogenase (SDH) subunit SDH1-1 (from UniProt O82663 1-634) (enzyme)
